# Laboratory results taken from PubChem BioAssay AID602313 (National Center for Advancing Translational Sciences (NCATS), 2012).
# Screen size: about 390,000 compounds; about 760 (0.19%) were called active. The shares of active, inactive and inconclusive entries below differ from those in the screen. Calls come from the whole dose curve; as a rule, active = well fitted inhibition curve with a large enough effect; inconclusive = small, poorly fitted or top-dose-only effect; inactive = flat fitted curve, though single readings scatter. Where the call is inconclusive, the potency comes from a doubtful curve fit.
# Test: qHTS for Inhibitors of Vif-A3F Interactions: qHTS; note: nearly all actives have a fitted effect of over 65% in size
# Details: HeLa A3F-eYFP + Vif (tagged APOBEC3F with the HIV-1 protein that degrades it), YFP fluorescence increase; series mostly up to 46.1 µM
# In short: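 HeLa cells stably expressing Vif plus C-terminally eYFP-tagged A3F were seeded, incubated overnight at 37 deg C, dosed with compound, incubated overnight again at 37 deg C. Yellow fluorescence (Ex 488/Em 500-530) reported blocked Vif-mediated A3F-eYFP degradation.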
# Potency is the fitted concentration of half-maximal effect.
row,SMILES,Potency
1,O=C(/C=C/c1cccc([N+](=O)[O-])c1)c1ccco1,inactive
2,COc1ccccc1N=c1oc2cc(O)ccc2cc1C(N)=O,"inconclusive: 28.2 µM [inhibitor, single point]"
3,CC(CCc1ccccc1)NC(=S)NC1CCCCC1 (stereo not given),"inconclusive: 20 µM [inhibitor, single point]"
4,NS(=O)(=O)c1ccc2nc(-c3ccccc3)c(-c3ccccc3)nc2c1,"inconclusive: 20 µM [inhibitor, single point]"
5,O=c1c2cc([N+](=O)[O-])ccc2sn1-c1ccccc1,"inconclusive: 17.8 µM [inhibitor, partial curve, poor fit]"
6,N#C/C(=C\c1ccc(-c2ccc(C(=O)O)cc2)o1)C(=O)Nc1ccc(F)cc1,"inconclusive: 20 µM [inhibitor, single point]"
7,Cc1ccn2c(=O)nc(SCC(=O)Nc3cccc4ccccc34)nc2c1,"inconclusive: 5.01 µM [inhibitor, full curve, poor fit]"
8,COc1ccc(SC[C@H](C)CN2CC[C@H](C(C)(C)C)CCC2=O)cc1,inactive
9,CN1C(=O)/C(=C/c2ccccc2OCc2ccc(C(=O)O)cc2)NC1=S,"inconclusive: 6.31 µM [inhibitor, single point]"
10,Cc1ccc(-c2nc3cccc(C)n3c2Nc2ccc3c(c2)OCO3)o1,"inconclusive: 15.8 µM [inhibitor, partial curve, poor fit]"
11,CSc1nc(N(C)NC(=O)c2ccc(Cl)cc2)c2ccccc2n1,inactive
12,COc1ccccc1Nc1nc(Cl)c(C=O)s1,"inconclusive: 35.5 µM [inhibitor, single point]"
13,Cc1ccc(OCC(=O)N2CCN(S(C)(=O)=O)CC2)cc1,"inconclusive: 3.16 µM [inhibitor, single point]"
14,CCN1C(=O)c2cccc3c(S(=O)(=O)NCCc4c[nH]c5ccccc45)ccc1c23,inactive
15,COc1ccccc1-c1cc(C(F)(F)F)nc(S(=O)(=O)CCCC(=O)NCc2ccc(F)cc2)n1,inactive
16,CNC(=S)N/N=C/c1c(C)nn(-c2cccc(Cl)c2)c1Cl,"inconclusive: 1.41 µM [inhibitor, partial curve, poor fit]"
17,O=C(Nc1ccc(Cl)cc1)ON=C1CCCC1,"inconclusive: 7.94 µM [inhibitor, partial curve, poor fit]"
18,COc1ccc(Cn2nnc3c(=O)[nH]c(C4CCN(S(=O)(=O)c5ccc(C)cc5)CC4)nc32)cc1,"inconclusive: 11.2 µM [inhibitor, partial curve, poor fit]"
19,NC(=O)CC(NC(=O)c1ccccc1)c1ccc(NC2CCCCC2)c([N+](=O)[O-])c1 (stereo not given),"inconclusive: 25.1 µM [inhibitor, single point]"
20,Oc1[nH]c2ccccc2c1N=Nc1ccccc1F,"inconclusive: 31.6 µM [inhibitor, single point]"
21,CCOc1ccc(N2C(=O)CC(N(Cc3ccco3)C(=O)CCC(=O)O)C2=O)cc1 (stereo not given),"inconclusive: 6.31 µM [inhibitor, partial curve, poor fit]"
22,O=C(NCCN1CCN(C(=O)NC2CCCCC2)CC1)NC1CCCCC1,"inconclusive: 6.31 µM [inhibitor, single point]"

# Taken from above.
# For Potency, NC(=O)CC(NC(=O)c1ccccc1)c1ccc(NC2CCCCC2)c([N+](=O)[O-])c1 (stereo not given) reads inconclusive: 25.1 µM [inhibitor, single point]
# For Potency, Oc1[nH]c2ccccc2c1N=Nc1ccccc1F reads inconclusive: 31.6 µM [inhibitor, single point]
# For Potency, CSc1nc(N(C)NC(=O)c2ccc(Cl)cc2)c2ccccc2n1 reads inactive

# Continuation:

row,SMILES,Potency
1,Cc1ccc(NC(=O)/C(C#N)=C(\N)C(Cl)(Cl)Cl)nc1,"inconclusive: 14.1 µM [inhibitor, partial curve, poor fit]"
2,Cc1ccc(S(=O)(=O)/N=C2/C=C(Sc3ncn[nH]3)C(=O)c3ccccc32)cc1,"inconclusive: 3.98 µM [inhibitor, partial curve, poor fit]"
3,O=C(NCc1ccccc1Cl)C1CCCN(S(=O)(=O)c2cccc3nonc23)C1 (stereo not given),"inconclusive: 35.5 µM [inhibitor, single point]"
4,CC(C)(C)NC(=O)C1Cc2ccccc2CN1S(=O)(=O)c1ccc(F)cc1 (stereo not given),"inconclusive: 25.1 µM [inhibitor, single point]"
5,CC(=O)NC(c1ccc(Cl)cc1)c1c(O)ccc2ccc(O)cc12 (stereo not given),"inconclusive: 35.5 µM [inhibitor, single point]"
6,O=c1[nH][nH]c2c(N=Cc3ccccc3O)ccc(F)c12,inactive
7,O=C(c1ccccc1)N1CCCCC(S(=O)(=O)c2ccc3ccccc3c2)C1=O (stereo not given),inactive
8,Cc1ccccc1NC(=S)c1ccc2ccccc2n1,inactive
10,Cc1ccc(S(=O)(=O)Nc2ccc(S(=O)(=O)Nc3nccs3)cc2)c([N+](=O)[O-])c1,"inconclusive: 11.2 µM [inhibitor, single point]"
11,Cc1c(NC(=O)c2csc3c2CCCC3)c(=O)n(-c2ccccc2)n1C,"inconclusive: 10 µM [inhibitor, partial curve]"
12,CCOc1ccc(NC(=O)c2c(NCc3ccc(C)o3)sc3c2CCCCC3)cc1,"inconclusive: 35.5 µM [inhibitor, single point]"
13,Cc1ccnc(OC(C(=O)O)C(OCc2ccccc2)(c2ccccc2)c2ccc(C(F)(F)F)cc2)n1 (stereo not given),"inconclusive: 35.5 µM [inhibitor, single point]"
14,OCCCn1c(C2CCCN2c2nc(-c3ccc(F)cc3)cs2)nc2cc(Cl)c(N3CCCCC3)cc21 (stereo not given),active: 25.1 µM
15,O=C(NCc1ccccc1Cl)C1CCN(S(=O)(=O)c2cccc3nonc23)CC1,"inconclusive: 25.1 µM [inhibitor, single point]"
16,Cc1ccc2nc(-c3ccc(NC(=O)CCN4C(=O)c5ccccc5C4=O)cc3)sc2c1,"inconclusive: 17.8 µM [inhibitor, single point]"
17,Cc1ccc(S(=O)(=O)Nc2nc3ccccc3nc2NCC2CCCO2)cc1 (stereo not given),"inconclusive: 11.2 µM [inhibitor, partial curve, poor fit]"
18,Cc1c(C#N)c(N)nc2c3c(sc12)NC(=O)CC3c1ccccc1 (stereo not given),inactive
19,Cc1cnc(NC(=O)CCCc2nc3ccccc3s2)s1,"inconclusive: 22.4 µM [inhibitor, single point]"
20,Cc1ccc(C(=O)NC(=S)N2CCN(c3ccccc3F)CC2)cc1,inactive
21,O=C(NCc1ccccc1Br)c1ccc2c(c1)nc1n2CCOC1,inactive
22,N=C1/C(=C\c2ccc(Br)o2)C(=O)N=C2SC(CC(=O)N3CCCCC3)=NN12,"inconclusive: 35.5 µM [inhibitor, single point]"

row,SMILES,Potency
1,CCOC(=O)c1cc(OC(=O)c2cc(OC)c(OC)c(OC)c2)n(-c2ccccc2)n1,inactive
2,COc1ccccc1C(=O)Oc1cc(C)[nH]c(=O)c1[N+](=O)[O-],"inconclusive: 35.5 µM [inhibitor, single point]"
3,Cc1ccc(NC(=O)c2c(NC(=O)c3ccc(F)cc3)sc3c2CCCC3)cc1C,inactive
4,C(=N\Nc1nc2ccccc2[nH]1)/c1cccc2cccnc12,"inconclusive: 3.16 µM [inhibitor, partial curve, poor fit]"
5,CC1(C)Cc2nc3oc4c(=O)n(CC(=O)Nc5cccc(Cl)c5)cnc4c3cc2CO1,"inconclusive: 15.8 µM [inhibitor, single point]"
6,CCc1nnc(SC(CC)C(=O)Nc2ccc(OC)c(Cl)c2)c2cc3occc3n12 (stereo not given),inactive
7,CCOC(=O)c1ccc(NC(=O)CSc2nc(-c3ccc(OC)cc3)cc(C(F)(F)F)c2C#N)cc1,active: 25.1 µM
8,Cc1nn(-c2ccccc2)c2sc(C(=O)N(Cc3ccco3)C(C)C(=O)NC(C)(C)C)cc12 (stereo not given),"inconclusive: 11.2 µM [inhibitor, partial curve, poor fit]"
9,Cc1nc2cc(NC(=O)CSc3nc4c(C)cccc4cc3C#N)ccc2s1,"inconclusive: 2.82 µM [inhibitor, full curve, poor fit]"
10,O=C(NCCCc1ccccc1)C(=O)NCC1OCCN1S(=O)(=O)c1cc(F)ccc1F (stereo not given),"inconclusive: 20 µM [inhibitor, single point]"
11,Cn1cnnc1SCC(=O)Nc1ccccc1F,"inconclusive: 3.55 µM [inhibitor, partial curve, poor fit]"
12,NCCOc1ccc(C23CC4CC(CC(C4)C2)C3)cc1,inactive
13,O=S(=O)(Nc1nc2ccccc2nc1Cl)c1ccc(Cl)cc1,"inconclusive: 35.5 µM [inhibitor, single point]"
14,O=[N+]([O-])c1ccc2[nH]c(=S)sc2c1,inactive
15,N#C/C(=C(/O)COC(=O)COc1ccc(Cl)cc1)c1nc2ccccc2[nH]1,"inconclusive: 35.5 µM [inhibitor, single point]"
16,CCc1ccnc(NS(=O)(=O)c2ccc3c(c2)OCCO3)c1,"inconclusive: 31.6 µM [inhibitor, single point]"
17,CCCCn1c(SCC(=O)c2ccc3c(c2)NC(=O)CO3)nc2cc(S(N)(=O)=O)ccc21,"inconclusive: 0.316 µM [inhibitor, full curve, poor fit]"
18,COc1ccccc1CNC(=O)c1cc2cccc3c2n1CC(C)S3 (stereo not given),inactive
19,O=C(NCc1ccc(OC(F)(F)F)cc1)c1cccc2c1C(=O)c1ccc(N3CCC(Cc4ccccc4)CC3)cc1S2(=O)=O,"inconclusive: 22.4 µM [inhibitor, partial curve, poor fit]"
20,CC1C(=O)N2CCCc3cc(NC(=O)c4ccccc4F)cc1c32 (stereo not given),"inconclusive: 8.91 µM [inhibitor, partial curve, poor fit]"
21,C#CCOCCOCCOCCNc1nc(N2CCN(C(=O)CCCCCCCCCCNC(=O)Cn3cc(C[C@@H](C)O)nn3)CC2)nc(N2CCN(C(=O)CCCCCCCCCCNC(=O)[C@@H]([C@H](C)O)n3cc(C)nn3)CC2)n1,"inconclusive: 3.16 µM [inhibitor, single point]"

# Rewritten tab-delimited: three of the compounds above.
row	SMILES	Potency
12	NCCOc1ccc(C23CC4CC(CC(C4)C2)C3)cc1	inactive
13	O=S(=O)(Nc1nc2ccccc2nc1Cl)c1ccc(Cl)cc1	inconclusive: 35.5 µM [inhibitor, single point]
14	O=[N+]([O-])c1ccc2[nH]c(=S)sc2c1	inactive
